Binding data for twelve molecules are collected here from publication PMC3988174.

No constants are given. Whether binding was seen depends on the method and setting. Some binding calls cover weakened binding; strength is not graded here.

The target of assay [1] is atToc132 A- plus G-domains bait (Arabidopsis thaliana) (UniProt Q9SLF3). The assay is described as follows: two-hybrid; pairwise split-ubiquitin yeast two-hybrid of isolated NubG-preys with Toc159G, Toc132G or Toc132AG bait in NMY51; growth on SD-LWHA (3-AT) and quantitative β-Gal assay, activity relative to a reference bait set to 100%.
Assay [2] shares this target. In words: two-hybrid; split-ubiquitin membrane-based yeast two-hybrid library screen in S. cerevisiae NMY51; bait fused to Cub-LexA-VP16 (pBT3-STE), Arabidopsis seedling cDNA library preys fused to NubG; selection on SD-LWHA with 3-AT; hits re-streaked, retransformed with the same bait, X-Gal filter assay.

B1: Tryptophan synthase, beta subunit 1 (protein, UniProt P14671 1-470)
chain: MAASGTSATFRASVSSAPSSSSQLTHLKSPFKAVKYTPLPSSRSKSSSFSVSCTIAKDPPVLMAAGSDPALWQRPDSFGRFGKFGGKYVPETLMHALSELESAFYALATDDDFQRELAGILKDYVGRESPLYFAERLTEHYRRENGEGPLIYLKREDLNHTGAHKINNAVAQALLAKRLGKKRIIAETGAGQHGVATATVCARFGLECIIYMGAQDMERQALNVFRMRLLGAEVRGVHSGTATLKDATSEAIRDWVTNVETTHYILGSVAGPHPYPMMVRDFHAVIGKETRKQALEKWGGKPDVLVACVGGGSNAMGLFHEFVNDTEVRMIGVEAAGFGLDSGKHAATLTKGDVGVLHGAMSYLLQDDDGQIIEPHSISAGLDYPGVGPEHSFFKDMGRAEYYSITDEEALEAFKRVSRLEGIIPALETSHALAYLEKLCPTLSDGTRVVLNFSGRGDKDVQTVAKYLDV
B1: the binding result in assay [1] is “binds”.

B2: Photosystem II subunit X (protein, UniProt Q9SKI3 1-116)
chain: MASTSAMSLVTPLNQTRSSPFLKPLPLKPSKALVATGGRAQRLQVKALKMDKALTGISAAALTASMVIPEIAEAAGSGISPSLKNFLLSIASGGLVLTVIIGVVVGVSNFDPVKRT
For the molecule B2, the binding result in assay [1] and in assay [2] was “binds” throughout.

B3: Glutathione S-transferase PHI 2 (protein, UniProt P46422 1-212)
chain: MAGIKVFGHPASIATRRVLIALHEKNLDFELVHVELKDGEHKKEPFLSRNPFGQVPAFEDGDLKLFESRAITQYIAHRYENQGTNLLQTDSKNISQYAIMAIGMQVEDHQFDPVASKLAFEQIFKSIYGLTTDEAVVAEEEAKLAKVLDVYEARLKEFKYLAGETFTLTDLHHIPAIQYLLGTPTKKLFTERPRVNEWVAEITKRPASEKVQ
With B3, the binding result in assay [1] is listed as “binds”.

B4: Fatty acid desaturase 6 (protein, UniProt P46312 1-448)
chain: MASRIADSLFAFTGPQQCLPRVPKLAASSARVSPGVYAVKPIDLLLKGRTHRSRRCVAPVKRRIGCIKAVAAPVAPPSADSAEDREQLAESYGFRQIGEDLPENVTLKDIMDTLPKEVFEIDDLKALKSVLISVTSYTLGLFMIAKSPWYLLPLAWAWTGTAITGFFVIGHDCAHKSFSKNKLVEDIVGTLAFLPLVYPYEPWRFKHDRHHAKTNMLVHDTAWQPVPPEEFESSPVMRKAIIFGYGPIRPWLSIAHWVNWHFNLKKFRASEVNRVKISLACVFAFMAVGWPLIVYKVGILGWVKFWLMPWLGYHFWMSTFTMVHHTAPHIPFKPADEWNAAQAQLNGTVHCDYPSWIEILCHDINVHIPHHISPRIPSYNLRAAHESIQENWGKYTNLATWNWRLMKTIMTVCHVYDKEENYIPFDRLAPEESQPITFLKKAMPNYTA
Regarding B4, the binding entry in assay [1] is listed as “binds”.

B5: Geranylgeranyl reductase (protein, UniProt Q39108 1-326)
chain: MLFSGSAIPLSSFCSLPEKPHTLPMKLSPAAIRSSSSSAPGSLNFDLRTYWTTLITEINQKLDEAIPVKHPAGIYEAMRYSVLAQGAKRAPPVMCVAACELFGGDRLAAFPTACALEMVHAASLIHDDLPCMDDDPVRRGKPSNHTVYGSGMAILAGDALFPLAFQHIVSHTPPDLVPRATILRLITEIARTVGSTGMAAGQYVDLEGGPFPLSFVQEKKFGAMGECSAVCGGLLGGATEDELQSLRRYGRAVGMLYQVVDDITEDKKKSYDGGAEKGMMEMAEELKEKAKKELQVFDNKYGGGDTLVPLYTFVDYAAHRHFLLPL
In the case of B5, the binding entry in assay [1] and in assay [2] was “binds” throughout.

B6: Small GTP-binding protein (protein, UniProt Q9FNM5 1-681)
chain: MAMASAMDLSSPPTFFLSGTSTSSPSLRRLSSISVSGFRRHSNRKLQILCQATAGTEPQSGLSVSGSKLAARSGQDRLLKVPISNIRNFSIIAHIDHGKSTLADKLLQVTGTVQNRDMKEQFLDNMDLERERGITIKLQAARMRYVYEDTPFCLNLIDTPGHVDFSYEVSRSLAACEGALLVVDASQGVEAQTLANVYLALENNLEIIPVLNKIDLPGAEPEKVLREIEEVIGLDCSKAIFCSAKEGIGITEILDAIVQRIPAPLDTAGKPLRALIFDSYYDPYRGVIVYFRVIDGKVKKGDRIFFMASGKDYFADEVGVLSPNQIQVDELYAGEVGYIAASVRSVADARVGDTITHYSRKAESSLPGYEEATPMVFCGLFPVDADQFPDLRDALEKLQLNDAALKFEPETSSAMGFGFRCGFLGLLHMEIVQERLEREYNLNLITTAPSVVYRVNSVNGDTTLCSNPSRLPDPGQRKSVEEPYVKIELLTPKDYIGALMELAQERRGEFKEMKYIAENRASILYELPLAEMVGDFFDQLKSRTKGYASMEYSVIGYRESDLIKLDILINAEMVEPLSTIVHRDKAYSVGRALTQKLKELIPRQMFKVPIQACIGSKVIASEALSAIRKDVLAKCYGGDISRKKKLLKKQAAGKKRMKAIGRVDVPQEAFMAVLKLEREVL
With B6, the binding entry in assay [1] is reported as “binds”.

B7: Photosystem I subunit D-2 (protein, UniProt Q9SA56 1-204)
chain: MATQAAGIFSPAITTTTSAVKKLHLFSSSHRPKSLSFTKTAIRAEKTESSSAAPAVKEAPVGFTPPQLDPNTPSPIFAGSTGGLLRKAQVEEFYVITWNSPKEQIFEMPTGGAAIMREGPNLLKLARKEQCLALGTRLRSKYKITYQFYRVFPNGEVQYLHPKDGVYPEKANPGREGVGLNMRSIGKNVSPIEVKFTGKQSYDL
B7: the binding result in assay [1] and in assay [2] was “binds” each time.

B8: Translationally controlled tumor protein (protein, UniProt P31265 1-168)
chain: MLVYQDLLTGDELLSDSFPYKEIENGILWEVEGKWVTVGAVDVNIGANPSAEEGGEDEGVDDSTQKVVDIVDTFRLQEQPTYDKKGFIAYIKKYIKLLTPKLSEEDQAVFKKGIEGATKFLLPRLSDFQFFVGEGMHDDSTLVFAYYKEGSTNPTFLYFAHGLKEVKC
Regarding B8, the binding entry in assay [1] was “binds”.

B9: Protein LURP-one-related 15 Protein (protein, UniProt Q9LZX1 1-217)
chain: MEQPYVYAYPQGSGPSGAPTPQAGGVVVDPKYCAPYPIDMAIVRKMMSLTDGNFVITDVNGNLLFKVKEPVFGLHDKRVLLDGSGTPVVTLREKMVSMHDRWQVFRGGSTDQRDLLYTVKRSSMLQLKTKLDVFLGHNKDEKRCDFRVKGSWLERSCVVYAGESDAIVAQMHRKHTVQSVFLGKDNFSVTVYPNVDYAFIASLVVILDDVNREDRAA
Turning to B9, in assay [1], the binding entry is given as “binds”.

B10: Lactoylglutathionelyase (protein, UniProt Q8H0V3 1-185)
chain: MASEARESPANNPGLSTNRDEATKGYIMQQTMFRIKDPKASLDFYSRVLGMSLLKRLDFSEMKFSLYFLGYEDTTTAPTDPTERTVWTFGQPATIELTHNWGTESDPEFKGYHNGNSEPRGFGHIGVTVDDVHKACERFEELGVEFAKKPNDGKMKNIAFIKDPDGYWIEIFDLKTIGTTTVNAA
With B10, the binding entry in assay [1] is “binds”.

B11: Fe superoxide dismutase 1 (protein, UniProt P21276 1-212)
chain: MAASSAVTANYVLKPPPFALDALEPHMSKQTLEFHWGKHHRAYVDNLKKQVLGTELEGKPLEHIIHSTYNNGDLLPAFNNAAQAWNHEFFWESMKPGGGGKPSGELLALLERDFTSYEKFYEEFNAAAATQFGAGWAWLAYSNEKLKVVKTPNAVNPLVLGSFPLLTIDVWEHAYYLDFQNRRPDYIKTFMTNLVSWEAVSARLEAAKAASA
As for B11, the binding entry in assay [1] is “binds”.

B12: Light-Harvesting Chlorophyll-Protein Complex I Subunit A4 (protein, UniProt P27521 1-251)
chain: MATVTTHASASIFRPCTSKPRFLTGSSGRLNRDLSFTSIGSSAKTSSFKVEAKKGEWLPGLASPDYLTGSLAGDNGFDPLGLAEDPENLKWFVQAELVNGRWAMLGVAGMLLPEVFTKIGIINVPEWYDAGKEQYFASSSTLFVIEFILFHYVEIRRWQDIKNPGSVNQDPIFKQYSLPKGEVGYPGGIFNPLNFAPTQEAKEKELANGRLAMLAFLGFVVQHNVTGKGPFENLLQHLSDPWHNTIVQTFN
In the case of B12, the binding entry in assay [1] and in assay [2] was “binds” each time.
